# Assay results as given in the supplement of paper PMC9135407.
# Where “and” joins values, the source holds several entries; their conditions need not be identical. Equal entries are not always repeated. Structures can show the parent of a compound that is named as a salt. ± gives the standard deviation of the averaged measurements. Some of the results follow. Baselines shift from plate to plate; read single values as rough.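 Primary human stellate myofibroblasts activated in culture; inactivation shown by regained lipid droplets. Readout: fraction of Hoechst-counted cells exceeding a per-plate Bodipy threshold, duplicate wells, each plate with DMSO negative and nortriptyline positive controls. Hits: control-normalized score beyond the plate's top-tenth-percentile nortriptyline wells, or among its three best wells. Final well concentrations unstated.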
# Test system: primary human hepatic stellate cells (donor 1)
# Experiment: percent Bodipy-positive cells; higher = more lipid droplet accumulation
# Conditions: 48 h
# [1] = library stock concentration: 3.33 mM
# [2] = library stock concentration: 10 mM
# [3] = library stock concentration: 1 mM
compound,measurement,setting,value
CCCCOc1cc(C(=O)OCCN(CC)CC)ccc1N [Oxybuprocaine HCl],percent Bodipy-positive cells,[1],15.3 ± 1.5%
same,percent Bodipy-positive cells,[2],55.6 ± 2.2%
CCCCOc1cc(C(=O)OCCN(CC)CC)ccc1N [Benoxinate hydrochloride],percent Bodipy-positive cells,,45 ± 2.6%
O=C1O[C@H]([C@@H](O)CO)C([O-])=C1O.[Na+] [Sodium ascorbate],percent Bodipy-positive cells,[1],13.3 ± 8.1%
same,percent Bodipy-positive cells,[2],36.9 ± 12%
CCCCC[C@H](O)/C=C/[C@H]1C(=O)C=C[C@@H]1C/C=C\CCCC(=O)O [Prostaglandin J2],percent Bodipy-positive cells,[3],16.9% and 17.2%
O=C(O)CCCC=CCC1C(=O)CC(O)C1C=CC(O)CCc1ccccc1 (stereo not drawn) [17-Phenyl-trinor-prostaglandin E2],percent Bodipy-positive cells,[3],11.5 ± 12%
O=C(O)CCCC=CCC1C(=O)CC(O)C1C=CC(O)CCc1ccccc1 (stereo not drawn) [17-phenyl trinor Prostaglandin E2],percent Bodipy-positive cells,[3],13.9 ± 6.1%
CC(C)c1ccccc1S(=O)(=O)c1cc(N)c2ncccc2c1[N+](=O)[O-],percent Bodipy-positive cells,[2],54.9 ± 28%
"CC(C)(C)c1cc(O)c(C(C)(C)C)cc1O [2,5-Ditertbutylhydroquinone]",percent Bodipy-positive cells,library stock concentration: 22.5 mM,57.1 ± 8.9%
Cc1ccc(S(=O)(=O)Nc2nc3ccccc3nc2Nc2ccc3nsnc3c2)cc1,percent Bodipy-positive cells,library stock concentration: 80 uM,11.5 ± 2.8%
same,percent Bodipy-positive cells,library stock concentration: 400 uM,19.9 ± 10%
same,percent Bodipy-positive cells,library stock concentration: 2 mM,14.6 ± 1.4%
same,percent Bodipy-positive cells,[1],7.09 ± 0.38%
same,percent Bodipy-positive cells,[2],17.6% and 18.4%
CCOC(=O)C1=C(N)Oc2ccc(Br)cc2C1C(C#N)C(=O)OCC (stereo not drawn),percent Bodipy-positive cells,[1],35.7 ± 1.8%
same,percent Bodipy-positive cells,[2],5.9 ± 0.9%
CCCCC(CC)COC(=O)CC(C(=O)OCC(CC)CCCC)S(=O)(=O)O (stereo not drawn),percent Bodipy-positive cells,[2],22.3 ± 8.1%
C[C@H]1C[C@H]2[C@@H]3CCC4=CC(=O)C=C[C@]4(C)[C@@]3(F)[C@@H](O)C[C@]2(C)[C@@]1(O)C(=O)COP(=O)(O)O,percent Bodipy-positive cells,[2],22.5 ± 6.5%
CC1CCN(CC[C@H]2CCCN2S(=O)(=O)c2cccc(O)c2)CC1,percent Bodipy-positive cells,[1],14.9 ± 8.8%
same,percent Bodipy-positive cells,[2],25.4% and 25.1% and 13.4%
Nc1ncnc2c1ncn2[C@@H]1O[C@H](CO)[C@@H](O)[C@@H]1O [Vidarabine],percent Bodipy-positive cells,,15.6 ± 6.1%
same,percent Bodipy-positive cells,[1],8.76 ± 0.11%
same,percent Bodipy-positive cells,library stock concentration: 7.5 mM,8.9% and 20.6%
same,percent Bodipy-positive cells,[2],16.8% and 23.4%
Nc1n[nH]c(N)c1N=Nc1ccc(O)cc1 [Cdk9 Inhibitor II],percent Bodipy-positive cells,[1],11.3 ± 0.89%
CC(C)OC(=O)CCC/C=C\C[C@@H]1[C@@H](/C=C/C(=O)COc2cccc(C(F)(F)F)c2)[C@H](O)C[C@@H]1O [15-keto Fluprostenol isopropyl ester],percent Bodipy-positive cells,[3],16.2 ± 5.8%
CCOc1nc2cccc(C(=O)O)c2n1Cc1ccc(-c2ccccc2-c2nnn[nH]2)cc1 [Candesartan],percent Bodipy-positive cells,[1],6.539 ± 0.0042%
same,percent Bodipy-positive cells,library stock concentration: 4.5 mM,8.02 ± 4.4%
same,percent Bodipy-positive cells,[2],17.5 ± 6.1%
C[C@@](Cc1ccc(O)c(O)c1)(NN)C(=O)O [Carbidopa],percent Bodipy-positive cells,[1],8 ± 5.7%
same,percent Bodipy-positive cells,library stock concentration: 8.8 mM,5.56% and 16.4%
same,percent Bodipy-positive cells,[2],10.1 ± 0.86%
C[C@@](Cc1ccc(O)c(O)c1)(NN)C(=O)O,percent Bodipy-positive cells,[2],20 ± 2.5%
O=C[C@@H]1CCCN1C(=O)[C@@H]1CCCN1C(=O)OCc1ccccc1 [Z-prolyl-prolinal],percent Bodipy-positive cells,library stock concentration: 15.1 mM,24.9 ± 5.5%
CCN(CC)CCCCNc1ncc2cc(-c3c(Cl)cccc3Cl)c(NC(=O)NC(C)(C)C)nc2n1,percent Bodipy-positive cells,[2],84.69 ± 0.52%
C=CC(=O)Nc1cccc(Oc2nc(Nc3ccc(N4CCN(C)CC4)cc3)ncc2Cl)c1,percent Bodipy-positive cells,[1],60.9 ± 7.5%
same,percent Bodipy-positive cells,[2],100%
NC[C@@H]1O[C@H](C23CC4CC(CC(C4)C2)C3)Cc2c1ccc(O)c2O,percent Bodipy-positive cells,[2],100%
CC1OC2(CS1)CN1CCC2CC1 (stereo not drawn) [Cevimeline hydrochloride],percent Bodipy-positive cells,[2],7.76 ± 1.9%
COc1ccc(Cl)cc1NC(=O)Nc1cc(C)nc2ccccc12 [IGF-1R Inhibitor II],percent Bodipy-positive cells,[1],29.3 ± 1.6%
COc1ccc(Cl)cc1NC(=O)Nc1cc(C)nc2ccccc12,percent Bodipy-positive cells,[1],53.4 ± 1.8%
same,percent Bodipy-positive cells,[2],29.1 ± 0.56%
CN(C)CCC(c1ccc(Br)cc1)c1ccccn1 (stereo not drawn) [Brompheniramine hydrogen maleate],percent Bodipy-positive cells,[1],23.8 ± 4%
same,percent Bodipy-positive cells,[2],55.4 ± 5.3%
CN(C)CCC(c1ccc(Br)cc1)c1ccccn1 (stereo not drawn) [Brompheniramine maleate],percent Bodipy-positive cells,,47.2 ± 3.1%
same,percent Bodipy-positive cells,[2],59.6 ± 4.3%
CCCCn1c2ccc(O)cc2c2c3c(c(-c4ccccc4Cl)cc21)C(=O)NC3=O [Wee1 Inhibitor II],percent Bodipy-positive cells,[1],2.58 ± 0.33%
O=C(Nc1ncc(SCCN2CCCC2)s1)[C@]1(c2ccc(S(=O)(=O)C3CC3)cc2)C[C@@H]1C1CCCCC1,percent Bodipy-positive cells,[1],98.5 ± 1.6%
O=C1CC[C@@H](C(=O)N2CSC[C@H]2C(=O)O)N1 [Pidotimod],percent Bodipy-positive cells,[1],4.95 ± 0.47%
same,percent Bodipy-positive cells,[2],21 ± 13%
O=C1CC[C@@H](C(=O)N2CSC[C@H]2C(=O)O)N1,percent Bodipy-positive cells,[2],13.4 ± 4.5%
"COc1ccccc1N1CCN(CCCNc2c(C)c(=O)n(C)c(=O)n2C)CC1 [Urapidil, 5-Methyl-]",percent Bodipy-positive cells,[2],27.3 ± 3%
c1ccc(-c2ccc(C(c3ccccc3)n3ccnc3)cc2)cc1 (stereo not drawn),percent Bodipy-positive cells,[2],26.1 ± 13%
c1ccc(-c2ccc(C(c3ccccc3)n3ccnc3)cc2)cc1 (stereo not drawn) [Bifonazole],percent Bodipy-positive cells,[1],9.89 ± 1.8%
same,percent Bodipy-positive cells,library stock concentration: 6.4 mM,12.5% and 28.5%
same,percent Bodipy-positive cells,[2],38.3% and 46.6%
Oc1c(Cl)cc(Cl)c2cccnc12 [Chloroxine],percent Bodipy-positive cells,[1],6.8 ± 1.6%
same,percent Bodipy-positive cells,library stock concentration: 9.3 mM,20.1 ± 4.1%
O=C(O)CCC/C=C\C[C@H]1C(=O)C=C[C@@H]1/C=C/[C@@H](O)COc1ccccc1 [16-phenoxy tetranor Prostaglandin A2],percent Bodipy-positive cells,[3],14.1 ± 3%
C[C@]12CCC(=O)C=C1CC[C@@H]1[C@@H]2CC[C@@]2(C)[C@H]1CC[C@]2(O)C(=O)CO [Cortexolone],percent Bodipy-positive cells,[2],10.9 ± 0.6%
C[C@]12CCC(=O)C=C1CC[C@@H]1[C@@H]2CC[C@@]2(C)[C@H]1CC[C@]2(O)C(=O)CO [Reichstein?s substance?S],percent Bodipy-positive cells,[2],7.18 ± 0.2%
COC(=O)C1=C(C)NC(C)=C(C(=O)OC(C)(C)CN(C)CCC(c2ccccc2)c2ccccc2)C1c1cccc([N+](=O)[O-])c1 (stereo not drawn) [Lercanidipine hydrochloride hemihydrate],percent Bodipy-positive cells,[2],64.9 ± 7%

# Taken from the entries so far (3 entries):
compound,measurement,setting,value
COc1ccc(Cl)cc1NC(=O)Nc1cc(C)nc2ccccc12,percent Bodipy-positive cells,[1],53.4 ± 1.8%
same,percent Bodipy-positive cells,[2],29.1 ± 0.56%
CN(C)CCC(c1ccc(Br)cc1)c1ccccn1 (stereo not drawn) [Brompheniramine hydrogen maleate],percent Bodipy-positive cells,[1],23.8 ± 4%
